Laboratory results as given in article PMC4521751.
These are yes or no findings as the source states them, for the method shown. Binding seen in cells or lysates may run through a third protein. A result given as binding can be weak or reduced; the word gives no strength. Tags and fused reporters may be left off the sequences shown. Values belong to the molecule of their own block, whether it stands above or below them.

Chains of the proteins cited; added tags and fusions are not shown. Lines headed by an entry give the natural chain unless they say otherwise; changes in a name come on top.
UniProt Q6Y598: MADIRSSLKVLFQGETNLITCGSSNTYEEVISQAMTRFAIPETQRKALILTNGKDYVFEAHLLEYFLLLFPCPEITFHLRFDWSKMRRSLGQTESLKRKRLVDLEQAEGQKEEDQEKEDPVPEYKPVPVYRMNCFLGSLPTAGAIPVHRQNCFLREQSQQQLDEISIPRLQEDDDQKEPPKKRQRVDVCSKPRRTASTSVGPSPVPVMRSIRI

Assays:
[1] = biological target: T1, GST-DmP53 (Drosophila melanogaster) (UniProt Q9N6D8); assay: pull-down; 1 ug GST or GST-DmP53 on glutathione-agarose beads, 500 ul lysate of transfected cells (RIPA), 4°C overnight, washed 4 times with RIPA buffer; blot with anti-Flag M2; only the target purified
T1 sequence: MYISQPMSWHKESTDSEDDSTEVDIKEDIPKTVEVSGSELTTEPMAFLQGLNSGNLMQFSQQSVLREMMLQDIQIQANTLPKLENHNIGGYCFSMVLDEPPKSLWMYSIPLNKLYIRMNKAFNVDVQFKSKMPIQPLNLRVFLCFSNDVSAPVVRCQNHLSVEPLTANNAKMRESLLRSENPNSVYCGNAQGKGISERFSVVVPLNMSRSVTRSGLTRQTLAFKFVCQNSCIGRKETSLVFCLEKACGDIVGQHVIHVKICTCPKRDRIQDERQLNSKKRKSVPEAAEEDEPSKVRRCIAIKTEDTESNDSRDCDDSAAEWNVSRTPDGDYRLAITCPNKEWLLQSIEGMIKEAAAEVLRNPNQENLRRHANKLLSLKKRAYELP

[2] = biological target: Corp-GFP-Flag (Drosophila melanogaster) (UniProt Q6Y598); assay: co-IP; Corp-GFP-FLAG constructs co-transfected with HA-DmP53 in HeLa cells; IP with anti-Flag, blot with anti-HA
[3] = biological target: Corp(Δ14–54)-GFP-FLAG (Drosophila melanogaster); assay: as above

- binding [1]: binds
Molecule: Corp-GFP-Flag (from UniProt Q6Y598)

- binding [2]: binds
- binding [3]: binds
B1: HA-DmP53 (protein, UniProt Q9N6D8 1-385)
chain: T1 sequence
